Consider one substance from US20220125874A1.

Chains of the proteins cited; added tags and fusions are not shown.
UniProt P29351: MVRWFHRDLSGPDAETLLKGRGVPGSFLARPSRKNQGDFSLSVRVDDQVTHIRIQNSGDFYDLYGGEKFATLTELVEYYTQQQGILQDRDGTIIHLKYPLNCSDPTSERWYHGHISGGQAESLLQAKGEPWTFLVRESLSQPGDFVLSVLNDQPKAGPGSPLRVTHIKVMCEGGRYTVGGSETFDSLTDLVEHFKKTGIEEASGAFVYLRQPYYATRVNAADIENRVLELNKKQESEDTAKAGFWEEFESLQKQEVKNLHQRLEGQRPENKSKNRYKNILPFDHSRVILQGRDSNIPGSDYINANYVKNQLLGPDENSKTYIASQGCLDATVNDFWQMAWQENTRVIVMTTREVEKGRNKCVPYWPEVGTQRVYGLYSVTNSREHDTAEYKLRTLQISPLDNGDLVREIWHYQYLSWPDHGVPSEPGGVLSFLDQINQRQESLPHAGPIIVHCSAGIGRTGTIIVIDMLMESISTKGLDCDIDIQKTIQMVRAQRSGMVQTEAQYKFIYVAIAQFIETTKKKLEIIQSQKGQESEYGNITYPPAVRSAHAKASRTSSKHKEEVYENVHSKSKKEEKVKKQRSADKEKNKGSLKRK

These are yes or no findings as the source states them, for the method shown. In cells and extracts the contact can be indirect. Some results given as binding are weak or reduced against the parent protein; the word gives no strength.

This assay concerns the target T1, Siglec G (mouse, in spleen cells of CD24-deficient mice) (mouse) (UniProt Q80ZE3).
T1 sequence (tyrosine phosphorylated after CD24Fc stimulation (sites not stated), looked up): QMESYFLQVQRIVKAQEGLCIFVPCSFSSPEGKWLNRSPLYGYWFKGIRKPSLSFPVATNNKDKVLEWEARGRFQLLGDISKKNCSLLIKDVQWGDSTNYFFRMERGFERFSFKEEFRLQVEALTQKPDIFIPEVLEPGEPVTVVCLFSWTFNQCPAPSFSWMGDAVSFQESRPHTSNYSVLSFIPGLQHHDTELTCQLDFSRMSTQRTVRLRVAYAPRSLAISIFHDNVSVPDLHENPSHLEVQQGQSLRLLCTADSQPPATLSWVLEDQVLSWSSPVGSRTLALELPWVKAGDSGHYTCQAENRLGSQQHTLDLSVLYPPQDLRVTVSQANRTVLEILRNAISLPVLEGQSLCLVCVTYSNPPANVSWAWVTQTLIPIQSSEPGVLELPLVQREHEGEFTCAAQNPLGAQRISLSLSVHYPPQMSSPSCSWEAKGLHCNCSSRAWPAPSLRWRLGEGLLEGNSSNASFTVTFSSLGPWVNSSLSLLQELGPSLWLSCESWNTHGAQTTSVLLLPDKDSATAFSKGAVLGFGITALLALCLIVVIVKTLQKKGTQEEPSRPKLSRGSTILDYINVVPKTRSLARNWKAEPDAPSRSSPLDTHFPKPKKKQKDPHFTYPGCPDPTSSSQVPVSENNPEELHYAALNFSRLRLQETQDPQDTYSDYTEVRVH
Put plainly: co-immunoprecipitation with anti-Siglec G antisera from spleen cell lysate, Western blot. A general note: In western blotting, separated proteins are transferred to a membrane and probed.

With “SHP-1 (from UniProt P29351 1-595) (enzyme)”, the binding result is reported as “binds”.
